For two substances, binding results are on record in doi:10.1101/2021.03.17.435899.

The chains behind the UniProt entries cited, without tags or fusion partners.
UniProt Q38912: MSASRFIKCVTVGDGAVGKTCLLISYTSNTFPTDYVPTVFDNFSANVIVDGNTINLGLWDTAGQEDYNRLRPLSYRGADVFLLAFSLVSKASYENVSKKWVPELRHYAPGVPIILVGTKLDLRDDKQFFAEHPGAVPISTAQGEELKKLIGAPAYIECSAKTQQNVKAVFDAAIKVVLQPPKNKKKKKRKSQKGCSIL

Results are given in words; binding and its absence hold for the method and conditions named. In cells and extracts the contact can be indirect. Some entries that bind do so weakly or less than the wild type. Tags and fused reporters may be left off the sequences shown.

The assay addresses T1, MBP-RIC1 (Arabidopsis) (UniProt F4IVV0).
T1 sequence: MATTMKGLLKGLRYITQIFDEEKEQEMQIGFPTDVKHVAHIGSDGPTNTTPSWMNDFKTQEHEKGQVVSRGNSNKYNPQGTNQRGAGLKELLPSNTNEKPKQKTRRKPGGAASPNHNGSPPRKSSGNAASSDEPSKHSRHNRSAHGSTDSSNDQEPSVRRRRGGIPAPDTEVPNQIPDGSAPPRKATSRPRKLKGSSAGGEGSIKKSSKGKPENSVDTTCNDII
Description: pull-down.

For the substance ROP6 (from UniProt Q38912 1-198), the binding entry is “binds”.
Regarding GFP-ROP6 (from UniProt Q38912 1-198), the binding result is “binds”.
